PubChem BioAssay AID686943, Drosophila RNAi Screening Center – 2013
The deposit covers about 23,000 reagents; below is a random part of those that have a named target and a result. 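Extra replicates exist only for a retested subset of genes; insulin dose and duration not given; both raised and lowered dpERK matter.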 Names joined by + are all predicted targets of the reagent. Reagent sequences are not shown. Not given: the amount of reagent, the time to read-out.

- Purpose: 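Search across the genome for regulators of signalling from receptor tyrosine kinase to ERK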 (primary screen)
- Cells: Drosophila S2R+ haemocyte-like cells expressing YFP-tagged ERK (Rolled)
- Reagents: long dsRNA against Drosophila genes
- Treatment: insulin stimulation versus unstimulated cells; dose and duration not given
- Measurement: 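Antibody staining for doubly phosphorylated ERK divided by ERK-YFP signal, as plate z-scores, in insulin-treated and untreated cells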
- Scale: replicate 1, z-score of dpERK with insulin and replicate 2, z-score of dpERK with insulin: higher = more active ERK per ERK-YFP after insulin; replicate 1, z-score of dpERK under basal conditions: higher = more basal active ERK per ERK-YFP; replicate 1, z-score of ERK-YFP with insulin: higher = more YFP-tagged ERK signal

| target | amplicon | replicate 1, z-score of dpERK with insulin | replicate 2, z-score of dpERK with insulin | replicate 1, z-score of dpERK under basal conditions | replicate 1, z-score of ERK-YFP with insulin |
| --- | --- | --- | --- | --- | --- |
| UQCR-C1 | DRSC15508 | -0.04 | -1.16 | -0.21 | -1.06 |
| pncr004:X (retired record) | DRSC19295 | 0.22 | 0.22 | 0.58 | 0.04 |
| PSMG1 | DRSC12297 | -0.74 | -0.36 | -0.25 | -0.21 |
| sle + CG12592 | DRSC21387 | -0.46 | -0.57 | -0.27 | 0.17 |
| tx | DRSC16931 | -0.28 | 0.57 | 0.9 | 2.3 |
| Jon65Aiii | DRSC10649 | -0.06 | 0.48 | -0.31 | 0.51 |
| CG12983 | DRSC11692 | 0.3 | 0.05 | -0.46 | 0.25 |
| dpr17 | DRSC12885 | -0.02 | 0.12 | 0.69 | 0.28 |
| dpr17 | DRSC14957 | -3.24 | -2.32 | -3.03 | 1.07 |
| dpr17 | DRSC14958 | 0.21 | -0.25 | -0.45 | -0.08 |
| Prosalpha7 | DRSC07516 | -1.6 | -2.06 | -2.79 | 0.72 |
| CG6136 | DRSC15975 | -0.56 | -1.49 | -0.19 | 0.22 |
| Ercc1 | DRSC07424 | -1.42 | -1.36 | -2.42 | -0.3 |
| CG3862 | DRSC00631 | 0.58 | -0.05 | -0.03 | -0.07 |
| CG18418 | DRSC08535 | 1.32 | 1.09 | 0.17 | -0.16 |
| Slc45-1 | DRSC10427 | 0.36 | 0.58 | -0.51 | 1.13 |
| Ugt303B1 | DRSC15141 | 0.54 | -0.04 | -0.81 | 0 |
| CG8944 | DRSC20128 | -0.5 | 0.7 | 1.93 | 0.15 |
| CG8944 | DRSC21342 | 0.32 | 0.75 | -0.29 | 1.23 |
| AnxB11 | DRSC19331 | 0.95 | 0.34 | -1.28 | 2.44 |
| Got2 | DRSC00643 | -0.19 | 0.74 | -0.34 | -0.88 |
| CG8708 | DRSC07240 | -0.27 | 0.21 | -0.3 | 0.25 |
| VAChT + ChAT | DRSC13312 | 0.74 | 0.69 | -2.76 | 0.5 |
| dpr11 | DRSC12561 | 0.03 | 0.08 | -0.39 | 0.04 |
| dpr11 | DRSC12562 | -0.23 | -0.18 | 0.97 | 0 |
| dpr11 | DRSC12563 | 0.32 | 0.39 | -0.69 | -0.37 |
| jef | DRSC06198 | 0.43 | 0.37 | 1.09 | 0.27 |
| Lsd-2 | DRSC20143 | 0.99 | 0.35 | -0.11 | 0.08 |
| IP3K2 | DRSC19500 | 0.56 | -1.07 | -1.52 | 0.31 |
| IP3K2 | DRSC19747 | 0.65 | 0.11 | -0.14 | 0.56 |
| IP3K2 | DRSC22614 | 0.16 | 0.84 | -0.37 | 0.55 |
| caup | DRSC11334 | 0.08 | -3.12 | -2.01 | -0.07 |
| Syt12 | DRSC19359 | -0.45 | 0.06 | -0.03 | 0.25 |
| ng3 | DRSC18804 | 0.44 | 0.64 | -0.7 | 0.55 |
| CG3402 | DRSC08567 | 0.49 | 0.24 | 0.4 | -0.28 |
| RpL18A | DRSC07538 | -2.66 | -0.32 | -3.15 | -2.73 |
| antr | DRSC22392 | 2.27 | -0.05 | -1.33 | -1.11 |
| miple2 | DRSC08723 | 0.05 | 0.02 | -0.43 | 0.99 |
| CG3726 | DRSC18320 | -1.31 | 0.3 | 0.26 | 2.73 |
| Aps | DRSC10629 | 1.21 | 0.63 | -0.39 | 0.41 |
| Ns1 | DRSC15529 | -1.61 | -0.85 | -0.29 | -0.61 |
| CG10097 + CG10096 | DRSC14189 | -0.67 | 0.07 | -0.68 | -0.66 |
| CG10097 + CG10096 | DRSC14190 | 0.04 | 0.1 | -0.41 | 0.27 |
| CG3222 | DRSC10355 | -0.38 | 0.22 | 0.42 | 0.21 |

Not a retest: an excerpt of the list.
| target | amplicon | replicate 1, z-score of dpERK with insulin | replicate 2, z-score of dpERK with insulin | replicate 1, z-score of dpERK under basal conditions | replicate 1, z-score of ERK-YFP with insulin |
| --- | --- | --- | --- | --- | --- |
| Lsd-2 | DRSC20143 | 0.99 | 0.35 | -0.11 | 0.08 |
| IP3K2 | DRSC19500 | 0.56 | -1.07 | -1.52 | 0.31 |
| IP3K2 | DRSC19747 | 0.65 | 0.11 | -0.14 | 0.56 |
| IP3K2 | DRSC22614 | 0.16 | 0.84 | -0.37 | 0.55 |
| caup | DRSC11334 | 0.08 | -3.12 | -2.01 | -0.07 |
| Syt12 | DRSC19359 | -0.45 | 0.06 | -0.03 | 0.25 |
| ng3 | DRSC18804 | 0.44 | 0.64 | -0.7 | 0.55 |
| CG3402 | DRSC08567 | 0.49 | 0.24 | 0.4 | -0.28 |
| RpL18A | DRSC07538 | -2.66 | -0.32 | -3.15 | -2.73 |

Continued.
| target | amplicon | replicate 1, z-score of dpERK with insulin | replicate 2, z-score of dpERK with insulin | replicate 1, z-score of dpERK under basal conditions | replicate 1, z-score of ERK-YFP with insulin |
| --- | --- | --- | --- | --- | --- |
| Cec-Psi1 | DRSC21956 | 0.37 | 0.16 | -0.15 | 0.02 |
| CG12448 | DRSC01967 | -0.58 | -0.36 | 0.05 | 0.74 |
| rdog | DRSC14431 | -0.03 | -0.39 | 0.79 | 0.39 |
| Rab9Db + Rab9Fa | DRSC18445 | 0.66 | 0.14 | -0.44 | -0.17 |
| CG15306 | DRSC17993 | 0.34 | -0.52 | 0.88 | 0.51 |
| CG15306 | DRSC18240 | 0.6 | -1.64 | 1.64 | -0.06 |
| CG30037 | DRSC07305 | -0.2 | 0.08 | 0.93 | -0.06 |
| Syx4 | DRSC18586 | 0.66 | 0.56 | 0.32 | -0.02 |
| cag | DRSC07587 | -0.28 | 0.4 | 0.49 | 1.09 |
| CG14982 | DRSC08440 | -3.23 | -3.3 | -1.51 | -3.57 |
| SKIP | DRSC14713 | -0.49 | -0.09 | -0.68 | 0.97 |
| SKIP | DRSC14714 | -0.23 | -0.48 | -0.38 | -0.11 |
| SKIP | DRSC15864 | 1.24 | 0.34 | -2.59 | 0.55 |
| SKIP | DRSC16195 | 0.04 | -0.2 | 0.07 | 0.28 |
| SKIP | DRSC16196 | 0.3 | -0.21 | -0.34 | -0.49 |
| dcma | DRSC00246 | 1.32 | 0.14 | 0.44 | 0.03 |
| dcma | DRSC00338 | -0.8 | -0.84 | -0.37 | 0.82 |
| CG5808 | DRSC14124 | 0.67 | -0.32 | 0.02 | -1.14 |
| fws | DRSC02969 | -0.06 | -0.29 | 1.88 | 0.28 |
| kud | DRSC11086 | 0.17 | -0.78 | -0.03 | 0.85 |
| CG31142 | DRSC13647 | 0.91 | 0.5 | 0.95 | -0.21 |
| CG5262 | DRSC11773 | -0.5 | -0.5 | 0.99 | -0.64 |
| CG13795 | DRSC02299 | 1.33 | -0.17 | -0.85 | 0.75 |
| Not3 | DRSC04908 | -4.58 | -3.62 | -0.81 | -2.22 |
| RhoU | DRSC17635 | 0.81 | 0.19 | 0.17 | 0.01 |
| RhoU | DRSC17803 | -0.4 | -0.29 | -0.33 | -0.79 |
| RhoU | DRSC17804 | 0.79 | 0.49 | 0.43 | -0.06 |
| RhoU | DRSC22159 | -0.4 | 0.14 | 0.09 | 0.12 |
| RhoU | DRSC22396 | 0.38 | 0.36 | -0.25 | -0.05 |
